The target in assay [1] is T1, T-cadherin (endogenous, mouse, on cardiomyocyte surfaces) (mouse) (UniProt Q9WTR5).
T1 sequence (GPI anchor, looked up): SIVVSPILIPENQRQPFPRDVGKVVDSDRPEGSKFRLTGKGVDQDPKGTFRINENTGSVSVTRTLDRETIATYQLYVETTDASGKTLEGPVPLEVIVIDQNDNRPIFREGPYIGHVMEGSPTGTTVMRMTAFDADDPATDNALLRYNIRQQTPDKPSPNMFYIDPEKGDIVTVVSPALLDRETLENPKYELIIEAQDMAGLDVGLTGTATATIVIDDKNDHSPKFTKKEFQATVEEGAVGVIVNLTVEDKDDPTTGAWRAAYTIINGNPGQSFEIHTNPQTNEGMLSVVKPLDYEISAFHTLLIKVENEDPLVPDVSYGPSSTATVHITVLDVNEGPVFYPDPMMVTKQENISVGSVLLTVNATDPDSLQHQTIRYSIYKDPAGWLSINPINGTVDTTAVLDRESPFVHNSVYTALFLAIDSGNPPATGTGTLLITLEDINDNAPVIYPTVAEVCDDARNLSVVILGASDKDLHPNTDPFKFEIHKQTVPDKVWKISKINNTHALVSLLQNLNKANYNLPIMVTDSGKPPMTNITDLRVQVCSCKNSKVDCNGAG
Briefly: immunostaining of hearts of adAPN-treated adiponectin null mice.

In assay [2] the target is T1, T-cadherin (endogenous, mouse, on cardiomyocyte surfaces) (mouse). Put plainly: immunostaining of hearts of adAPN-treated adiponectin null mice (FIG. 13A legend).

These are yes or no findings as the source states them, for the method shown. Binding calls can cover weak binding; strength is not graded here.

As for “adenovirus-expressed recombinant adiponectin (ligand)”, the binding result in assay [1] and in assay [2] was “binds” throughout.

(Values after patent publication US20100269180A1.)
